Results published in PMC9617877.
No constants are given. Whether binding was seen depends on the method and setting. In cells and extracts the contact can be indirect. Here binding means that the protein was enriched with, or labelled near, the bait; the list need not be complete. One block for each molecule: values may come before it.

Chains of the proteins cited; added tags and fusions are not shown. Lines headed by an entry give the natural chain unless they say otherwise; changes in a name come on top. Residues count along the entry.
UniProt P27361: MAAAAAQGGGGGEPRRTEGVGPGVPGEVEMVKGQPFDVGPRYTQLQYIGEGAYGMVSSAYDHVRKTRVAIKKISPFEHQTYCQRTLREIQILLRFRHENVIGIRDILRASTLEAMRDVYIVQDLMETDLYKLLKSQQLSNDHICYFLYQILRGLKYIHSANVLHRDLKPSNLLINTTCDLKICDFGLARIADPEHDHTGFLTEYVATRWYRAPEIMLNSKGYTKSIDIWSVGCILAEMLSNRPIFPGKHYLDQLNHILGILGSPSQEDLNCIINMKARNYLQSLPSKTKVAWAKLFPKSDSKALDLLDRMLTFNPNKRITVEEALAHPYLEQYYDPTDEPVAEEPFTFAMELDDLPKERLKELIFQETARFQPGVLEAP
UniProt Q09472: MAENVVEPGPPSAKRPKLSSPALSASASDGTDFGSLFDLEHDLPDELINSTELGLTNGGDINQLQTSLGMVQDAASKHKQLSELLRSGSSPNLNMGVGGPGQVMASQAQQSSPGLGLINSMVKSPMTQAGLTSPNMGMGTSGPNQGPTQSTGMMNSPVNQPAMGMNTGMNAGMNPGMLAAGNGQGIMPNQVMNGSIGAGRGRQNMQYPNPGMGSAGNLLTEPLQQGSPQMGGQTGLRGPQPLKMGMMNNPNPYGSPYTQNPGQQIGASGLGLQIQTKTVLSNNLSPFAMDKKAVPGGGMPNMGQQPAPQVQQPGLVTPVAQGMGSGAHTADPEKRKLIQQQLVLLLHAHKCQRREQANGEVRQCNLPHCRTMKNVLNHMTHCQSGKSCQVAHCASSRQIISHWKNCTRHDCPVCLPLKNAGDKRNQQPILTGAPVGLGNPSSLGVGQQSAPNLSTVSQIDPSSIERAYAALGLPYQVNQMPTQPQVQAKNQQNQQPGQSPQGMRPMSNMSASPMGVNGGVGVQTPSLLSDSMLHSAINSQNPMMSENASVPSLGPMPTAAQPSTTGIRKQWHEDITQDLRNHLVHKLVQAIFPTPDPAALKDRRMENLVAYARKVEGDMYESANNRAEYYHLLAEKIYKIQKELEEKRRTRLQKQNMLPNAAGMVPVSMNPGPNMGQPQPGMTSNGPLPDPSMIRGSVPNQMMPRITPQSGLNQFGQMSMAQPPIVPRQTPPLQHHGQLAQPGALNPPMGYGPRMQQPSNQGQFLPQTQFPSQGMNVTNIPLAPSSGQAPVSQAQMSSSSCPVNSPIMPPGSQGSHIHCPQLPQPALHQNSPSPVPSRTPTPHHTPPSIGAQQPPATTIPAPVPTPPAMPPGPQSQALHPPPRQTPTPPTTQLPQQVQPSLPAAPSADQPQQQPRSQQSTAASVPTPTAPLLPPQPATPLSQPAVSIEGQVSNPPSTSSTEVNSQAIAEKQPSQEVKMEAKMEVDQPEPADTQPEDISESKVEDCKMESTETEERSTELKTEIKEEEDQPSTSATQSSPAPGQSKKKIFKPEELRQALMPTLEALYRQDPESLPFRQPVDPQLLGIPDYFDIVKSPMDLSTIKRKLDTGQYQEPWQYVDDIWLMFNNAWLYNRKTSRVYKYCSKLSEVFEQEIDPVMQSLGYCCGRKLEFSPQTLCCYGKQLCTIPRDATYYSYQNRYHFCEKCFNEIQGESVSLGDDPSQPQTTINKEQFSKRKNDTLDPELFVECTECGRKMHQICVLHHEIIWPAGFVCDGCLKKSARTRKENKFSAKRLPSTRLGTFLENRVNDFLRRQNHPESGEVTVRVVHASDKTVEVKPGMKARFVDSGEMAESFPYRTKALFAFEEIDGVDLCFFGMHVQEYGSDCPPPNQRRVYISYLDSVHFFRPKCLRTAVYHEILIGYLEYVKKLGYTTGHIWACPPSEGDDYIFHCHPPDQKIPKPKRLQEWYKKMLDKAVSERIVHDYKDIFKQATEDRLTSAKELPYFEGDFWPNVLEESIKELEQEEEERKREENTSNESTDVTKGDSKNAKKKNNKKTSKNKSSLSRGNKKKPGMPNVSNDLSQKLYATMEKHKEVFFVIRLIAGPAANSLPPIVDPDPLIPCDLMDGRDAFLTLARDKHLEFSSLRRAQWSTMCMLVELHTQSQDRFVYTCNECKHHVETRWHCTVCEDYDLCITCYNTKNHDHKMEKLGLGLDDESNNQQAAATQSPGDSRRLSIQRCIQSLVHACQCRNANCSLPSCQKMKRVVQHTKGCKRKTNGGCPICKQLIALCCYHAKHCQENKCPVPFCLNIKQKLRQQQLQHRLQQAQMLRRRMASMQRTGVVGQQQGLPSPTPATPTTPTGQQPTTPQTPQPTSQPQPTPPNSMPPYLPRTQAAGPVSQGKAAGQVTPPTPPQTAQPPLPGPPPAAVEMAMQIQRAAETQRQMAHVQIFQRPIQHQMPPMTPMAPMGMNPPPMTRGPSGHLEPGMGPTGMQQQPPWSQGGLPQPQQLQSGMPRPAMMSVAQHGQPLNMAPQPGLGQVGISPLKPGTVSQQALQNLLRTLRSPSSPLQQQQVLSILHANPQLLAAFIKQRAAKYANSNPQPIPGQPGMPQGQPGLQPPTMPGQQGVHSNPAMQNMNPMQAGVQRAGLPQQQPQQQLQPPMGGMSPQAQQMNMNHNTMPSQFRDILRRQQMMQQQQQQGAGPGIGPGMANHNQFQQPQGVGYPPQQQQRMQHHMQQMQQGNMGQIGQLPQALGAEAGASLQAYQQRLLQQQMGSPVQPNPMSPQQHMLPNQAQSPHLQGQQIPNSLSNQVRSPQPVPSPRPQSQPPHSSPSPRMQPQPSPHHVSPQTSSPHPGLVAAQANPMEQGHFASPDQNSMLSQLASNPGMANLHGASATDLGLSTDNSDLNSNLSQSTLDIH
UniProt P05412: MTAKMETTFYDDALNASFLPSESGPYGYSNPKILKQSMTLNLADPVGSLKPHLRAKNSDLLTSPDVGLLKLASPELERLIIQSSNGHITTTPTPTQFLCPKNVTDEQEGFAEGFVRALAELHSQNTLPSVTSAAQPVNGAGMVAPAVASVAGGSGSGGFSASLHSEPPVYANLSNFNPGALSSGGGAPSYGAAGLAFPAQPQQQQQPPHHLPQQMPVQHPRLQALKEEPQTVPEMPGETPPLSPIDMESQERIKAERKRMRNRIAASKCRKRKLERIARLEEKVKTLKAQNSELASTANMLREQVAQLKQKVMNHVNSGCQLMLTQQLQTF
UniProt Q13586, residues 23-685: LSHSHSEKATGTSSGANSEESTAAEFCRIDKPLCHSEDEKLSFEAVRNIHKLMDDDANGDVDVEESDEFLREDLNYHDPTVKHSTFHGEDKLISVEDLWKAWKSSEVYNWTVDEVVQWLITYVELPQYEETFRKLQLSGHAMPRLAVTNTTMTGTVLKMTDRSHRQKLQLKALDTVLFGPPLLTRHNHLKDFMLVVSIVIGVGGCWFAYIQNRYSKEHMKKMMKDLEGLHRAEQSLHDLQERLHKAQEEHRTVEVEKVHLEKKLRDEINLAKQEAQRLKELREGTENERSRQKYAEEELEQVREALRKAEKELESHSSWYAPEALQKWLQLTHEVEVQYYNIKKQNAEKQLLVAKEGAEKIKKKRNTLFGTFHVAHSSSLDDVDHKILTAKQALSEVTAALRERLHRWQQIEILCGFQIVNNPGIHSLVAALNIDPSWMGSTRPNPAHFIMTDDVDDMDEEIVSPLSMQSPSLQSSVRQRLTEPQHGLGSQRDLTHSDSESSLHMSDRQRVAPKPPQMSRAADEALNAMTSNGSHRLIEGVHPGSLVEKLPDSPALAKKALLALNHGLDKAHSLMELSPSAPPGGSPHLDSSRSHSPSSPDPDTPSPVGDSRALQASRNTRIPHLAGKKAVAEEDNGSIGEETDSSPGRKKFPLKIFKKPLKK

Columns and labels:
[1] = biological target: BirA*-ERK2 (ERK2 fused to the promiscuous R118G form of the biotin ligase BirA, Flag-tagged) (UniProt P28482); assay: proximity labelling; BioID in HEK293 cells transiently transfected with BirA*-ERK1, BirA*-ERK2 or BirA*-GFP (control); biotin 50 µM, 24 h; RIPA lysis, streptavidin-agarose, on-bead trypsin, MS; SAINT score >= 0.80, BFDR <= 0.05, Log2 FC >= 1; ERK1 and ERK2 results combined
[2] = biological target: BirA*-ERK1 (ERK1 fused to the promiscuous R118G form of the biotin ligase BirA, Flag-tagged) (UniProt P27361); assay: as above

binding [1]: binds
binding [2]: binds
Molecule: EP300 (from UniProt Q09472 1-2414)

binding [1]: binds
binding [2]: binds
Molecule: JUN (from UniProt P05412 1-331)

binding [1]: binds
binding [2]: binds
Molecule: STIM1 (from UniProt Q13586 23-685)

binding [1]: binds
binding [2]: binds
B1: GAB1 (protein, UniProt Q13480 1-694)
chain: MSGGEVVCSGWLRKSPPEKKLKRYAWKRRWFVLRSGRLTGDPDVLEYYKNDHAKKPIRIIDLNLCQQVDAGLTFNKKEFENSYIFDINTIDRIFYLVADSEEEMNKWVRCICDICGFNPTEEDPVKPPGSSLQAPADLPLAINTAPPSTQADSSSATLPPPYQLINVPPHLETLGIQEDPQDYLLLINCQSKKPEPTRTHADSAKSTSSETDCNDNVPSHKNPASSQSKHGMNGFFQQQMIYDSPPSRAPSASVDSSLYNLPRSYSHDVLPKVSPSSTEADGELYVFNTPSGTSSVETQMRHVSISYDIPPTPGNTYQIPRTFPEGTLGQTSKLDTIPDIPPPRPPKPHPAHDRSPVETCSIPRTASDTDSSYCIPTAGMSPSRSNTISTVDLNKLRKDASSQDCYDIPRAFPSDRSSSLEGFHNHFKVKNVLTVGSVSSEELDENYVPMNPNSPPRQHSSSFTEPIQEANYVPMTPGTFDFSSFGMQVPPPAHMGFRSSPKTPPRRPVPVADCEPPPVDRNLKPDRKVKPAPLEIKPLPEWEELQAPVRSPITRSFARDSSRFPMSPRPDSVHSTTSSSDSHDSEENYVPMNPNLSSEDPNLFGSNSLDGGSSPMIKPKGDKQVEYLDLDLDSGKSTPPRKQKSSGSGSSVADERVDYVVVDQQKTLALKSTREAWTDGRQSTESETPAKSVK
